# Measured data: PubChem BioAssay AID1259308 (NCATS, 2017)
# Assay: 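Candidate targets for better recombinant protein yield in mammalian cells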 (primary screen)
# System: human HEK293 embryonic kidney cells stably expressing firefly luciferase (HEK-CMV-Luc2-Hygro)
# Reagents: single siRNA against human genes, 0.8 pmol siRNA per well
# Duration: 72 h
# Read-out: 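Luciferase light (ONE-Glo) measured on one replicate plate set and viability (CellTiter-Glo) on the other, scaled to a negative control siRNA, with robust z-scores and luciferase per cell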
# Scale: total luciferase, z-score and total luciferase, % of control: higher = more reporter protein produced; luciferase per cell, z-score: higher = more reporter output per viable cell; viable cells, % of control: higher = more viable cells
# Hit rule: 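An siRNA counts as active if its total luciferase robust z-score exceeds 3; genes with two or more such siRNAs out of three were retested with fresh siRNAs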
# Calls: active = raised luciferase; inactive = no rise
# Shown is a random part of about 59,000 deposited reagents. In the full data, about 1,510 (2.6%) were called active. 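Calls use total luciferase alone and ignore viability, so some active siRNAs may act by altering cell number.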 The numbers tell different reagents against one gene apart. Reagent sequences are not shown.
target,siRNA no.,"total luciferase, z-score","total luciferase, % of control","luciferase per cell, z-score","viable cells, % of control",Outcome
PYDC2 (GeneID 152138),1,1.04,103,0.457,102,inactive
PYDC2 (GeneID 152138),2,-0.458,72.8,-0.58,94.8,inactive
PYDC2 (GeneID 152138),3,-1.23,57.4,-1.31,90.5,inactive
ZNF431 (GeneID 170959),1,-0.506,71.8,-0.666,95.6,inactive
ZNF431 (GeneID 170959),2,0.28,87.5,0.333,89.5,inactive
ZNF431 (GeneID 170959),3,0.139,84.7,0.0156,94.2,inactive
CACUL1 (GeneID 143384),1,0.372,89.3,0.838,80,inactive
CACUL1 (GeneID 143384),2,-1.7,48.1,-1.44,78.6,inactive
CACUL1 (GeneID 143384),3,-0.76,66.8,2.19,41.9,inactive
DMBT1 (GeneID 1755),1,0.355,88.9,0.279,92.3,inactive
DMBT1 (GeneID 1755),2,-0.858,64.8,-0.447,81.5,inactive
DMBT1 (GeneID 1755),3,0.00919,82.1,0.607,78.2,inactive
STRN4 (GeneID 29888),1,-0.736,67.3,-0.361,82.7,inactive
STRN4 (GeneID 29888),2,-0.173,78.5,-0.282,94.4,inactive
STRN4 (GeneID 29888),3,-1,62,0.422,62,inactive
MYOZ1 (GeneID 58529),1,0.094,83.8,0.153,89.9,inactive
MYOZ1 (GeneID 58529),2,-0.00901,81.7,-1.03,120,inactive
MYOZ1 (GeneID 58529),3,-1,62,-0.964,89.2,inactive
TAF6 (GeneID 6878),1,-0.403,73.9,1.79,51.5,inactive
TAF6 (GeneID 6878),2,-1.77,46.7,-2.06,89.9,inactive
TAF6 (GeneID 6878),3,0.264,87.1,0.188,92.7,inactive
OR6N2 (GeneID 81442),1,0.175,85.4,0.188,90.8,inactive
OR6N2 (GeneID 81442),2,0.935,100,0.403,101,inactive
OR6N2 (GeneID 81442),3,-2.19,38.3,-1.89,70.5,inactive
OR5T2 (GeneID 219464),1,-1.2,58.1,-1.01,84.8,inactive
OR5T2 (GeneID 219464),2,-0.912,63.7,-0.727,86.3,inactive
OR5T2 (GeneID 219464),3,1.29,107,0.784,97.7,inactive
CDK1 (GeneID 983),1,-0.85,65,0.176,69.3,inactive
CDK1 (GeneID 983),2,-0.695,68.1,-0.874,95.7,inactive
CDK1 (GeneID 983),3,0.0249,82.4,-0.461,104,inactive
OR4K17 (GeneID 390436),1,0.232,86.5,0.5,84.7,inactive
OR4K17 (GeneID 390436),2,2.45,131,2.27,80.2,inactive
OR4K17 (GeneID 390436),3,-0.0809,80.3,-0.638,106,inactive
SELENOI (GeneID 85465),1,-0.635,69.3,-0.817,96,inactive
SELENOI (GeneID 85465),2,-0.0389,81.1,0.538,78.7,inactive
SELENOI (GeneID 85465),3,0.366,89.2,1.03,75.9,inactive
RHBDD1 (GeneID 84236),1,-0.342,75.1,-0.909,107,inactive
RHBDD1 (GeneID 84236),2,-0.486,72.2,-0.497,92,inactive
RHBDD1 (GeneID 84236),3,1.39,110,0.881,97.1,inactive

Ordered by “total luciferase, z-score” (highest first): some entries from above.
target,siRNA no.,"total luciferase, z-score","total luciferase, % of control","luciferase per cell, z-score","viable cells, % of control",Outcome
PYDC2 (GeneID 152138),1,1.04,103,0.457,102,inactive
ZNF431 (GeneID 170959),2,0.28,87.5,0.333,89.5,inactive
ZNF431 (GeneID 170959),3,0.139,84.7,0.0156,94.2,inactive
PYDC2 (GeneID 152138),2,-0.458,72.8,-0.58,94.8,inactive
ZNF431 (GeneID 170959),1,-0.506,71.8,-0.666,95.6,inactive
PYDC2 (GeneID 152138),3,-1.23,57.4,-1.31,90.5,inactive
